Experimental data taken from PMC2680043, “Characterization of a Novel Small Molecule Subtype Specific Estrogen-Related Receptor α Antagonist in MCF-7 Breast Cancer Cells” (PLoS ONE, 2009).
No constants are given. Whether binding was seen depends on the method and setting. In cells and extracts the contact can be indirect. Some binding calls cover weakened binding; strength is not graded here.

Amino acid sequences for entries named in this document (tags omitted). Residues count along the entry.
UniProt Q9Y6Q9, residues 557-773: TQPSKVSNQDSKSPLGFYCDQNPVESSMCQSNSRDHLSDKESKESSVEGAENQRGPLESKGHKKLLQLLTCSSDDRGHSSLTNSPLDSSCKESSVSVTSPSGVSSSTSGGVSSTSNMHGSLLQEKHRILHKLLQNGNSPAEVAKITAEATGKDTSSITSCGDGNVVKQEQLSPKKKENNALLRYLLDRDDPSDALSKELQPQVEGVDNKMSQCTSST
UniProt Q61026, residues 565-798: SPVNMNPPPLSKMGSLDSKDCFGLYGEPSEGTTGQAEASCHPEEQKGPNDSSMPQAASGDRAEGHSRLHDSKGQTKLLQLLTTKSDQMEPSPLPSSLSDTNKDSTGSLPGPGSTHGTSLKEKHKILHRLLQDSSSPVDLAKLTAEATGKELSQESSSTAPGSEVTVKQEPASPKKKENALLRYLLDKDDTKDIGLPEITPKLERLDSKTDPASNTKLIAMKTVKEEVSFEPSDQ

What was measured:
Assay in all cases: pull-down; biotinylated coactivator RID bound to streptavidin beaded agarose; in vitro translated [35S]-labeled ERRα added in 1x TBS with DMSO (control), 4 hours at 4°C; SDS gel, phosphorimaging; only the target purified
[1] = target: AIB1 receptor interaction domain (RID), aa 557-773, biotinylated (UniProt Q9Y6Q9)
[2] = target: GRIP-1 receptor interaction domain (RID), aa 565-798, biotinylated (UniProt Q61026)
[3] = target: T1, PGC-1α receptor interaction domain (RID), aa 1-338, biotinylated (UniProt Q9UBK2)
T1 sequence (chain, biotinylated (sites not stated)): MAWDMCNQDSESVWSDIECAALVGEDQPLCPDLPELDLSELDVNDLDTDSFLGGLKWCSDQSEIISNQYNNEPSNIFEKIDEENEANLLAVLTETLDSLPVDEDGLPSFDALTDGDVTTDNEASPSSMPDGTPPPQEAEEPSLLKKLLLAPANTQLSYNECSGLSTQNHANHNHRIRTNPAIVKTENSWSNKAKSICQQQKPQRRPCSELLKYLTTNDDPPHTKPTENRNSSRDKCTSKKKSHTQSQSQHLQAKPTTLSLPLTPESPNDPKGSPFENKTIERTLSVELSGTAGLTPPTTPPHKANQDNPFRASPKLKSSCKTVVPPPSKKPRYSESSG

Measured: binding

B1: full-length human estrogen-related receptor α (ERRα), [35S]methionine-labeled (receptor, UniProt P11474 1-423, looked up)
chain: MSSQVVGIEPLYIKAEPASPDSPKGSSETETEPPVALAPGPAPTRCLPGHKEEEDGEGAGPGEQGGGKLVLSSLPKRLCLVCGDVASGYHYGVASCEACKAFFKRTIQGSIEYSCPASNECEITKRRRKACQACRFTKCLRVGMLKEGVRLDRVRGGRQKYKRRPEVDPLPFPGPFPAGPLAVAGGPRKTAAPVNALVSHLLVVEPEKLYAMPDPAGPDGHLPAVATLCDLFDREIVVTISWAKSIPGFSSLSLSDQMSVLQSVWMEVLVLGVAQRSLPLQDELAFAEDLVLDEEGARAAGLGELGAALLQLVRRLQALRLEREEYVLLKALALANSDSVHIEDAEAVEQLREALHEALLEYEAGRAGPGGGAERRRAGRLLLTLPLLRQTAGKVLAHFYGVKLEGKVPMHKLFLEMLEAMMD
modifications: [35S]methionine label
notes: estrogen-related receptor alpha, human, full length, amplified from human brain Marathon-ready cDNA and cloned into pcDNA3.1(+); No tag is named for this construct; also called hERRα; ESRRA; source: in vitro translated (TnT coupled reticulocyte lysate system, Promega), [35S]methionine added
binds: all assays above
